According to publication PMC11801707:
No constants are given. Whether binding was seen depends on the method and setting. In cells and extracts the contact can be indirect. Binding calls can cover weak binding; strength is not graded here.

Amino acid sequences for entries named in this document (tags omitted). A change or cut given only in a name is not applied to a line headed by its entry.
UniProt A5A757: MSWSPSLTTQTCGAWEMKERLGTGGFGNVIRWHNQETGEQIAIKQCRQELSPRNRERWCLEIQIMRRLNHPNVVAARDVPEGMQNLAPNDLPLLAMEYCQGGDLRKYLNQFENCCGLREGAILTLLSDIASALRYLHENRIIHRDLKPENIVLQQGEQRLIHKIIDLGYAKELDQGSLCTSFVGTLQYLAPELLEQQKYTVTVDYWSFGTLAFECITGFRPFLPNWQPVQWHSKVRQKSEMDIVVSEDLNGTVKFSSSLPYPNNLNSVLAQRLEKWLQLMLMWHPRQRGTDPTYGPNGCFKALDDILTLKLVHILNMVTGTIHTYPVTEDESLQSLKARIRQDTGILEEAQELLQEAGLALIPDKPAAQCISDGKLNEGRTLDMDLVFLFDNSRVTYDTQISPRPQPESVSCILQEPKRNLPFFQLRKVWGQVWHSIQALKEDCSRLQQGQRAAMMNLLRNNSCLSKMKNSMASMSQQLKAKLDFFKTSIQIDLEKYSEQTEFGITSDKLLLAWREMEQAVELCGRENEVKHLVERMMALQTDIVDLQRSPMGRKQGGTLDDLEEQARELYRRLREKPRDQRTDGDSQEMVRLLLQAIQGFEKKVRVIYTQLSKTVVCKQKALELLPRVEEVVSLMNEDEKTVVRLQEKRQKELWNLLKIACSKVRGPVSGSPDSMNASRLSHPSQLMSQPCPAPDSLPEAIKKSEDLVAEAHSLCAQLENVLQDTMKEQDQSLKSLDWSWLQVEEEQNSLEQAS
UniProt G9M4L5: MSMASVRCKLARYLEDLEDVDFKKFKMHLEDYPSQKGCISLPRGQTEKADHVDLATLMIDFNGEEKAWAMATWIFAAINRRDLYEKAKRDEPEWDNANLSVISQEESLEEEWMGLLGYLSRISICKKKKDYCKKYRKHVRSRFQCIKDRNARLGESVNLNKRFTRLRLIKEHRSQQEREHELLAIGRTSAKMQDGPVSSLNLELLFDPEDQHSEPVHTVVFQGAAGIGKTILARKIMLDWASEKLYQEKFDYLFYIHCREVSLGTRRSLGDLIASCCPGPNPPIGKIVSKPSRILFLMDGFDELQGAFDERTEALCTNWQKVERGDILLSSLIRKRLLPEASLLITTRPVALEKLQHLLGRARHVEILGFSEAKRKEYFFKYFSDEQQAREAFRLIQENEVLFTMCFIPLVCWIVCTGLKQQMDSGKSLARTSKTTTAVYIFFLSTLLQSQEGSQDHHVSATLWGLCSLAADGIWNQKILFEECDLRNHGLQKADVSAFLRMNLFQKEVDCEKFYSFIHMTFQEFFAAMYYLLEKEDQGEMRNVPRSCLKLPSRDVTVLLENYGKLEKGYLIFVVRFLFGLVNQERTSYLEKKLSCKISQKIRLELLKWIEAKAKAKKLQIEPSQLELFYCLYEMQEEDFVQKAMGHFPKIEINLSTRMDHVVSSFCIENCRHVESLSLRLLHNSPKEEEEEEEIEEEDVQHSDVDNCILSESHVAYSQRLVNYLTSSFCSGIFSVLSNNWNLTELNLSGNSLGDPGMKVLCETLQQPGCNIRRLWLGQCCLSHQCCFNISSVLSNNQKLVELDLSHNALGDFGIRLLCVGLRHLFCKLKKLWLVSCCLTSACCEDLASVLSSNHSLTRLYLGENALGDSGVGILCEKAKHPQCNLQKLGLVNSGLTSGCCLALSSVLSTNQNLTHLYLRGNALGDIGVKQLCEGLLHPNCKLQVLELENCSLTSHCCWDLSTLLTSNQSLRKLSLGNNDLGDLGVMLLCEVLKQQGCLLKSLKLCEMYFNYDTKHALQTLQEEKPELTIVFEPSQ

Experiments:
[1] = target: HA-tagged IKKβ (porcine) (pig (amplified from PAMs)) (UniProt A5A757); experiment: co-IP; HEK293T co-transfected; lysates immunoprecipitated with an anti-HA antibody plus Protein A/G beads, Western blot
[2] = target: Flag-tagged NLRP3 (porcine) (pig (amplified from PAMs)) (UniProt G9M4L5)

Substance | binding [1] | binding [2]
Flag-tagged NLRP3 (porcine) (from UniProt G9M4L5) | binds | –
HA-tagged IKKβ (porcine) (from UniProt A5A757) (enzyme) | – | binds
